We go through ten molecules from PubChem BioAssay.

This is one part of the list. These are further read-outs of the screen, such as a control signal, another cell line or another target. No call is given for them. For some of these results: Compounds called inactive in the main read-out are mostly missing here.

The nature of assay [1]: PubChem AID 1586. Particulars: yeast two-hybrid polyglutamine protein interaction, reporter readout; measured here: averaged growth delta OD.
Assay [2] is described as follows: enhancers of SMN2 over SMN1 splicing, cell-based, SMN2/SMN1 luciferase reporters (AID 1598). Particulars: SMN2 vs SMN1 luciferase splicing reporter cells, at 10 µM; SMN1 luciferase ratio: measured here: SMN1 luciferase reporter average; SMN2 luciferase ratio: measured here: SMN2 luciferase reporter average, stronger effect = higher value. On the technique in general: In a reporter assay the amount or activity of a reporter protein is the signal.

A short description of assay [3]: protection against mutant huntingtin cytotoxicity, PC12 cells, LDH release (AID 1610). The following applies: PC12 mutant huntingtin toxicity, final LDH at 4 uM, stronger effect = lower value.

In turn, `COc1ccc(C2Sc3ccccc3N(CCN(C)C)C(=O)C2OC(C)=O)cc1` (stereo not given) yielded a signal change (36 h minus 0 h) in assay [1] of 0.0954. In assay [2], the SMN1 luciferase ratio is 0.77 and the SMN2 luciferase ratio came out at 0.69. The molecule also gave a normalised LDH release in assay [3] of 1.18.

The molecule `CNC[C@@H](O)c1ccc(O)c(O)c1` showed a signal change (36 h minus 0 h) in assay [1] of 0.0631. Also, in assay [2], the SMN1 luciferase ratio was determined as 0.93 and the SMN2 luciferase ratio was 0.87. This molecule also had a normalised LDH release in assay [3] of 0.881.

In the case of `O=C(O)CCC(=O)OC[C@@H](NC(=O)C(Cl)Cl)[C@H](O)c1ccc([N+](=O)[O-])cc1`, in assay [1], the signal change (36 h minus 0 h) amounted to 0.0818. For the same molecule, in assay [2], the SMN1 luciferase ratio was determined as 0.85 and the SMN2 luciferase ratio is 0.87. The molecule further returned a normalised LDH release in assay [3] of 0.956.

`COc1cc2nc(N3CCN(C(=O)c4ccco4)CC3)nc(N)c2cc1OC`: the signal change (36 h minus 0 h) in assay [1] came out at 0.175. In assay [2], the SMN1 luciferase ratio amounted to 1.05 and the SMN2 luciferase ratio was determined as 1.04. The molecule also returned a normalised LDH release in assay [3] of 0.331.

`O=C(O)C1=CCNCC1` gave a signal change (36 h minus 0 h) in assay [1] of 0.045. Besides, in assay [2], the SMN1 luciferase ratio stood at 0.84 and the SMN2 luciferase ratio stood at 0.87. The same molecule had a normalised LDH release in assay [3] of 0.949.

On to `CC(=O)O[C@H]1C(=O)[C@@]2(C)C([C@H](OC(=O)c3ccccc3)[C@]3(O)C[C@H](OC(=O)[C@H](O)[C@@H](NC(=O)c4ccccc4)c4ccccc4)C(C)=C1C3(C)C)[C@]1(OC(C)=O)CO[C@@H]1C[C@@H]2O` (stereo not given in full), for which the signal change (36 h minus 0 h) in assay [1] turned out to be 0.0803. Besides, in assay [2], the SMN1 luciferase ratio is 1.32 and the SMN2 luciferase ratio was 1.34. The molecule further yielded a normalised LDH release in assay [3] of 1.31.

Consider `O=C1OCCN1/N=C/c1ccc([N+](=O)[O-])o1`, for which, in assay [1], the signal change (36 h minus 0 h) was found to be 0.194. Besides, in assay [2], the SMN1 luciferase ratio came out at 0.9 and the SMN2 luciferase ratio is 0.9. The molecule further came in with a normalised LDH release in assay [3] of 0.958.

Molecule `CCC(C)C(N)C(=O)N1CCCC1C(=O)NC(C(=O)O)C(C)CC` (stereo not given) showed a signal change (36 h minus 0 h) in assay [1] of 0.058. In assay [2], the SMN1 luciferase ratio is 0.9 and the SMN2 luciferase ratio is 1.05. For the same molecule, the normalised LDH release in assay [3] was found to be 0.94.

In assay [1], `CO[C@H]1C[C@H](O[C@H]2[C@H](C)[C@@H](OC3O[C@H](C)C[C@H](N(C)C)[C@H]3O)[C@@H](C)C[C@]3(CO3)C(=O)[C@H](C)[C@@H](O)[C@@H](C)[C@@H](C)OC(=O)[C@@H]2C)O[C@@H](C)[C@@H]1O` (stereo not given in full) yielded a signal change (36 h minus 0 h) of 0.157. For the same molecule, in assay [2], the SMN1 luciferase ratio was 0.97 and the SMN2 luciferase ratio was determined as 0.93. This molecule came in with a normalised LDH release in assay [3] of 0.809.

Consider `Cc1ccc(S(=O)(=O)NC(=O)NN2CCCCCC2)cc1`, for which, in assay [1], the signal change (36 h minus 0 h) is 0.216. For the same molecule, in assay [2], the SMN1 luciferase ratio stood at 0.88 and the SMN2 luciferase ratio was found to be 0.92. For the same molecule, the normalised LDH release in assay [3] was found to be 1.49.
